# From PubChem BioAssay AID2685 (National Center for Advancing Translational Sciences (NCATS), 2010)
# The other results are listed elsewhere or left out. Shown are side measurements of this screen, not its main read-out; they come without a call. Compounds called inactive in the main read-out are mostly missing here. The note in brackets gives the kind of curve behind each potency; many fits are weak.
# Assay: qHTS Assay for Lipid Storage Modulators in Drosophila S3 Cells;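 as to cell number change: cells counted by Cell Tracker Red CMTPX staining in the red channel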
# Settings: BODIPY lipid droplet fluorescence, 18-24 h; for cell number change: measured here: cell count max response, cells fed with added oleic acid
# How it was run: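 Laser-scanning cytometry quantifies lipid droplet accumulation (500–530 nm total intensity; droplet/cell object ratio) in oleic acid-fed (400 uM added) Drosophila S3 cells treated with a concentration series. 20 uM Triacsin C defined 100% inhibition.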
# [1] = measured here: cell number channel AC50, cells fed with added oleic acid
# [2] = measured here: lipid fluorescence (Fed channel) AC50, cells fed with added oleic acid
SMILES,cell number change,AC50 [1],AC50 [2]
CCCOc1ccc(C(=O)N2CCN(c3ccc(NC(=O)CC)cc3Cl)CC2)cc1,-41.5%,"9.2 µM [falling, partial curve]","3.66 µM [falling, full curve]"
O=C(NCCC(=O)N(Cc1ccco1)Cc1cccs1)c1ccccc1Cl,-7.78%,–,"1.3 µM [falling, full curve, poor fit]"
COc1cc(Cl)ccc1OCc1cc(C(=O)N2CCC(N(C)C)C2)no1 (stereo not given),4.28%,–,–
O=[N+]([O-])c1cc(C=Nc2cccc3c(O)cccc23)ccc1Cl,-45.7%,"16.4 µM [falling, partial curve, poor fit]",–
Cc1ccc(OCC(=O)Nc2ccc(S(=O)(=O)Nc3cc(C)nc(C)n3)cc2)cc1,1.53%,–,–
CC(C)N(Cc1ccccc1)C(=O)CN1C(=O)NC(Cc2ccccc2)(c2ccccc2)C1=O (stereo not given),–,"5.17 µM [rising, single point]",–
Cc1ccc(CNC(=O)C(=O)NCCC2CCCCN2S(=O)(=O)c2cccs2)cc1 (stereo not given),-45.3%,"18.4 µM [falling, single point]","4.61 µM [falling, full curve, poor fit]"
COc1ccc(/C=C2\Sc3ccc(C(=O)N4CCOCC4)cc3N(C)C2=O)cc1,57.5%,"29.1 µM [rising, single point]","5.17 µM [rising, full curve, poor fit]"
O=c1c2cc(N3CCOCC3)ccc2[nH]c(=S)n1Cc1ccco1,-15.9%,–,"0.291 µM [rising, full curve, poor fit]"
Cc1ccc2c(C(=O)CN3CCSCC3)c(C)[nH]c2c1,–,–,"2.31 µM [rising, partial curve]"
CCOc1ccc(NC(=O)c2ccc(N3CC4CC(C3)c3cccc(=O)n3C4)c(NC(=O)c3cccnc3)c2)cc1 (stereo not given),28.2%,–,"10.3 µM [rising, partial curve]"
CCOn1c(=O)c(-c2ccc(OC)c(OC)c2)[n+]([O-])c2ccccc21,14.4%,–,"29.1 µM [rising, single point]"
OC(CN1CCCCC1)Cn1c2ccccc2c2cc(Br)ccc21 (stereo not given),9.01%,–,–
O=C(Nc1ccc2nsnc2c1)c1cccs1,39.7%,"4.61 µM [rising, partial curve]",–
c1ccc(-c2cnn3c(-c4ccccc4)c(-c4ccccc4)nc3n2)cc1,–,–,"2.91 µM [falling, full curve]"
CCOc1ncccc1C(=O)OCc1ccc(Cl)cc1,-65.7%,"32.6 µM [falling, single point]","3.26 µM [rising, partial curve]"

# Looked up by compound from the list above, two records:
SMILES,cell number change,AC50 [1],AC50 [2]
O=[N+]([O-])c1cc(C=Nc2cccc3c(O)cccc23)ccc1Cl,-45.7%,"16.4 µM [falling, partial curve, poor fit]",–
O=c1c2cc(N3CCOCC3)ccc2[nH]c(=S)n1Cc1ccco1,-15.9%,–,"0.291 µM [rising, full curve, poor fit]"
